According to publication PMC3599385:
Substitutions are numbered along the chain they refer to. These are yes or no findings as the source states them, for the method shown. For some of these results: Binding seen in cells or lysates may run through a third protein. Some entries that bind do so weakly or less than the wild type. For some of these results: Sequences can lack the tags named with a protein. Each block holds one binder with its values, some of them ahead of it.

Key:
[1] = target: T1, STRUBBELIG intra-cellular domain (SUBICD, residues 371 to 768) in pGBKT7 (Arabidopsis thaliana) (UniProt Q8RWZ1); experiment: two-hybrid; Matchmaker system (Clontech), yeast strain AH109; SUB fragments in pGBKT7, AN in pACT; growth on SC-LWH at 30°C with 2.5 mM 3-amino-1,2,4-triazole
T1 sequence: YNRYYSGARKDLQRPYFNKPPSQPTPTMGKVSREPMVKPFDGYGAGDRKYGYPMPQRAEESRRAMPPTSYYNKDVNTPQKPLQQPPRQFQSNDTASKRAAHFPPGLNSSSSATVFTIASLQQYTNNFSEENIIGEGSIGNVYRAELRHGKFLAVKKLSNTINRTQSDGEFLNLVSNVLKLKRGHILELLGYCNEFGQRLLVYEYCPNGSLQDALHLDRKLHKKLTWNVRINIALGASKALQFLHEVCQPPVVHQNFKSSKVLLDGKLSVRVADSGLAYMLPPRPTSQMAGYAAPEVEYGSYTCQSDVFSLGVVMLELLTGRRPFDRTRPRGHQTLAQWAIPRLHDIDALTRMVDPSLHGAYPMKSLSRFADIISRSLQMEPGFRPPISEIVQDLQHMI

[2] = target: T2, STRUBBELIG extra-cellular domain (SUBECD, residues 26 to 340) in pGBKT7 (Arabidopsis thaliana) (UniProt Q8RWZ1); experiment: as above
T2 sequence: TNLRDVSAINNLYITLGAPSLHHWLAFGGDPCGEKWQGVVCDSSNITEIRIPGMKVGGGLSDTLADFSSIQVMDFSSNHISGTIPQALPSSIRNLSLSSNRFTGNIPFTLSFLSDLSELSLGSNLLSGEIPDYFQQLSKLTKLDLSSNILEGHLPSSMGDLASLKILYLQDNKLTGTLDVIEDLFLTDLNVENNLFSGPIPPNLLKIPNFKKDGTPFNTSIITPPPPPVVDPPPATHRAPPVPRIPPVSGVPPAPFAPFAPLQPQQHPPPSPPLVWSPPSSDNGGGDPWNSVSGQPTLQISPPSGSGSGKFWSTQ

[3] = target: T3, STRUBBELIG intra-cellular domain variant SUBICD-R599C in pGBKT7 (Arabidopsis thaliana) (UniProt Q8RWZ1); experiment: as above
T3 sequence: T1 sequence with R229C

[4] = target: T4, MBP:SUBICD (intra-cellular domain of STRUBBELIG fused to maltose-binding protein) (Arabidopsis thaliana) (UniProt Q8RWZ1); experiment: pull-down; MBP-tagged proteins held on amylose resin, incubated with equal amounts of GST:AN lysate for 4 hours at 4°C; western blot with anti-AN antibody; only the target purified
T4 sequence: T1 sequence

binding [1]: binds | binding [2]: no binding | binding [3]: no binding
B1: ANGUSTIFOLIA (AN) in pACT, yeast two-hybrid prey (protein, UniProt O23702 1-636)
chain: MSKIRSSATMPHRDQPSPASPHVVTLNCIEDCALEQDSLAGVAGVEYVPLSRIADGKIESATAVLLHSLAYLPRAAQRRLRPHQLILCLGSADRAVDSTLAADLGLRLVHVDTSRAEEIADTVMALILGLLRRTHLLSRHALSASGWLGSLQPLCRGMRRCRGMVLGIVGRSVSARYLASRSLAFKMSVLYFDVPEGDEERIRPSRFPRAARRMDTLNDLLAASDVISLHCALTNDTVQILNAECLQHIKPGAFLVNTGSCQLLDDCAVKQLLIDGTIAGCALDGAEGPQWMEAWVKEMPNVLILPRSADYSEEVWMEIREKAISILHSFFLDGVIPSNTVSDEEVEESEASEEEEQSPSKHEKLAIVESTSRQQGESTLTSTEIVRREASELKESLSPGQQHVSQNTAVKPEGRRSRSGKKAKKRHSQQKYMQKTDGSSGLNEESTSRRDDIAMSDTEEVLSSSSRCASPEDSRSRKTPLEVMQESSPNQLVMSSKKFIGKSSELLKDGYVVALYAKDLSGLHVSRQRTKNGGWFLDTLSNVSKRDPAAQFIIAYRNKDTVGLRSFAAGGKLLQINRRMEFVFASHSFDVWESWSLEGSLDECRLVNCRNSSAVLDVRVEILAMVGDDGITRWID

binding [4]: binds
B2: GST:AN (fusion of glutathione-S-transferase to ANGUSTIFOLIA) (protein, UniProt O23702 1-636)
chain: B1 chain
